From patent publication US20250340604A1, “BLOOD-BRAIN BARRIER TRANSLOCATING PEPTIDES AND RELATED MOLECULES AND METHODS OF USE THEREOF” (Enkefalos Biosciences, Inc., priority 2022, published 2025)
Results are given in words; binding and its absence hold for the method and conditions named. Some results given as binding are weak or reduced against the parent protein; the word gives no strength.

Amino acid sequences for entries named in this document (tags omitted). Residues count along the entry.
UniProt Q07954, residues 20-4419: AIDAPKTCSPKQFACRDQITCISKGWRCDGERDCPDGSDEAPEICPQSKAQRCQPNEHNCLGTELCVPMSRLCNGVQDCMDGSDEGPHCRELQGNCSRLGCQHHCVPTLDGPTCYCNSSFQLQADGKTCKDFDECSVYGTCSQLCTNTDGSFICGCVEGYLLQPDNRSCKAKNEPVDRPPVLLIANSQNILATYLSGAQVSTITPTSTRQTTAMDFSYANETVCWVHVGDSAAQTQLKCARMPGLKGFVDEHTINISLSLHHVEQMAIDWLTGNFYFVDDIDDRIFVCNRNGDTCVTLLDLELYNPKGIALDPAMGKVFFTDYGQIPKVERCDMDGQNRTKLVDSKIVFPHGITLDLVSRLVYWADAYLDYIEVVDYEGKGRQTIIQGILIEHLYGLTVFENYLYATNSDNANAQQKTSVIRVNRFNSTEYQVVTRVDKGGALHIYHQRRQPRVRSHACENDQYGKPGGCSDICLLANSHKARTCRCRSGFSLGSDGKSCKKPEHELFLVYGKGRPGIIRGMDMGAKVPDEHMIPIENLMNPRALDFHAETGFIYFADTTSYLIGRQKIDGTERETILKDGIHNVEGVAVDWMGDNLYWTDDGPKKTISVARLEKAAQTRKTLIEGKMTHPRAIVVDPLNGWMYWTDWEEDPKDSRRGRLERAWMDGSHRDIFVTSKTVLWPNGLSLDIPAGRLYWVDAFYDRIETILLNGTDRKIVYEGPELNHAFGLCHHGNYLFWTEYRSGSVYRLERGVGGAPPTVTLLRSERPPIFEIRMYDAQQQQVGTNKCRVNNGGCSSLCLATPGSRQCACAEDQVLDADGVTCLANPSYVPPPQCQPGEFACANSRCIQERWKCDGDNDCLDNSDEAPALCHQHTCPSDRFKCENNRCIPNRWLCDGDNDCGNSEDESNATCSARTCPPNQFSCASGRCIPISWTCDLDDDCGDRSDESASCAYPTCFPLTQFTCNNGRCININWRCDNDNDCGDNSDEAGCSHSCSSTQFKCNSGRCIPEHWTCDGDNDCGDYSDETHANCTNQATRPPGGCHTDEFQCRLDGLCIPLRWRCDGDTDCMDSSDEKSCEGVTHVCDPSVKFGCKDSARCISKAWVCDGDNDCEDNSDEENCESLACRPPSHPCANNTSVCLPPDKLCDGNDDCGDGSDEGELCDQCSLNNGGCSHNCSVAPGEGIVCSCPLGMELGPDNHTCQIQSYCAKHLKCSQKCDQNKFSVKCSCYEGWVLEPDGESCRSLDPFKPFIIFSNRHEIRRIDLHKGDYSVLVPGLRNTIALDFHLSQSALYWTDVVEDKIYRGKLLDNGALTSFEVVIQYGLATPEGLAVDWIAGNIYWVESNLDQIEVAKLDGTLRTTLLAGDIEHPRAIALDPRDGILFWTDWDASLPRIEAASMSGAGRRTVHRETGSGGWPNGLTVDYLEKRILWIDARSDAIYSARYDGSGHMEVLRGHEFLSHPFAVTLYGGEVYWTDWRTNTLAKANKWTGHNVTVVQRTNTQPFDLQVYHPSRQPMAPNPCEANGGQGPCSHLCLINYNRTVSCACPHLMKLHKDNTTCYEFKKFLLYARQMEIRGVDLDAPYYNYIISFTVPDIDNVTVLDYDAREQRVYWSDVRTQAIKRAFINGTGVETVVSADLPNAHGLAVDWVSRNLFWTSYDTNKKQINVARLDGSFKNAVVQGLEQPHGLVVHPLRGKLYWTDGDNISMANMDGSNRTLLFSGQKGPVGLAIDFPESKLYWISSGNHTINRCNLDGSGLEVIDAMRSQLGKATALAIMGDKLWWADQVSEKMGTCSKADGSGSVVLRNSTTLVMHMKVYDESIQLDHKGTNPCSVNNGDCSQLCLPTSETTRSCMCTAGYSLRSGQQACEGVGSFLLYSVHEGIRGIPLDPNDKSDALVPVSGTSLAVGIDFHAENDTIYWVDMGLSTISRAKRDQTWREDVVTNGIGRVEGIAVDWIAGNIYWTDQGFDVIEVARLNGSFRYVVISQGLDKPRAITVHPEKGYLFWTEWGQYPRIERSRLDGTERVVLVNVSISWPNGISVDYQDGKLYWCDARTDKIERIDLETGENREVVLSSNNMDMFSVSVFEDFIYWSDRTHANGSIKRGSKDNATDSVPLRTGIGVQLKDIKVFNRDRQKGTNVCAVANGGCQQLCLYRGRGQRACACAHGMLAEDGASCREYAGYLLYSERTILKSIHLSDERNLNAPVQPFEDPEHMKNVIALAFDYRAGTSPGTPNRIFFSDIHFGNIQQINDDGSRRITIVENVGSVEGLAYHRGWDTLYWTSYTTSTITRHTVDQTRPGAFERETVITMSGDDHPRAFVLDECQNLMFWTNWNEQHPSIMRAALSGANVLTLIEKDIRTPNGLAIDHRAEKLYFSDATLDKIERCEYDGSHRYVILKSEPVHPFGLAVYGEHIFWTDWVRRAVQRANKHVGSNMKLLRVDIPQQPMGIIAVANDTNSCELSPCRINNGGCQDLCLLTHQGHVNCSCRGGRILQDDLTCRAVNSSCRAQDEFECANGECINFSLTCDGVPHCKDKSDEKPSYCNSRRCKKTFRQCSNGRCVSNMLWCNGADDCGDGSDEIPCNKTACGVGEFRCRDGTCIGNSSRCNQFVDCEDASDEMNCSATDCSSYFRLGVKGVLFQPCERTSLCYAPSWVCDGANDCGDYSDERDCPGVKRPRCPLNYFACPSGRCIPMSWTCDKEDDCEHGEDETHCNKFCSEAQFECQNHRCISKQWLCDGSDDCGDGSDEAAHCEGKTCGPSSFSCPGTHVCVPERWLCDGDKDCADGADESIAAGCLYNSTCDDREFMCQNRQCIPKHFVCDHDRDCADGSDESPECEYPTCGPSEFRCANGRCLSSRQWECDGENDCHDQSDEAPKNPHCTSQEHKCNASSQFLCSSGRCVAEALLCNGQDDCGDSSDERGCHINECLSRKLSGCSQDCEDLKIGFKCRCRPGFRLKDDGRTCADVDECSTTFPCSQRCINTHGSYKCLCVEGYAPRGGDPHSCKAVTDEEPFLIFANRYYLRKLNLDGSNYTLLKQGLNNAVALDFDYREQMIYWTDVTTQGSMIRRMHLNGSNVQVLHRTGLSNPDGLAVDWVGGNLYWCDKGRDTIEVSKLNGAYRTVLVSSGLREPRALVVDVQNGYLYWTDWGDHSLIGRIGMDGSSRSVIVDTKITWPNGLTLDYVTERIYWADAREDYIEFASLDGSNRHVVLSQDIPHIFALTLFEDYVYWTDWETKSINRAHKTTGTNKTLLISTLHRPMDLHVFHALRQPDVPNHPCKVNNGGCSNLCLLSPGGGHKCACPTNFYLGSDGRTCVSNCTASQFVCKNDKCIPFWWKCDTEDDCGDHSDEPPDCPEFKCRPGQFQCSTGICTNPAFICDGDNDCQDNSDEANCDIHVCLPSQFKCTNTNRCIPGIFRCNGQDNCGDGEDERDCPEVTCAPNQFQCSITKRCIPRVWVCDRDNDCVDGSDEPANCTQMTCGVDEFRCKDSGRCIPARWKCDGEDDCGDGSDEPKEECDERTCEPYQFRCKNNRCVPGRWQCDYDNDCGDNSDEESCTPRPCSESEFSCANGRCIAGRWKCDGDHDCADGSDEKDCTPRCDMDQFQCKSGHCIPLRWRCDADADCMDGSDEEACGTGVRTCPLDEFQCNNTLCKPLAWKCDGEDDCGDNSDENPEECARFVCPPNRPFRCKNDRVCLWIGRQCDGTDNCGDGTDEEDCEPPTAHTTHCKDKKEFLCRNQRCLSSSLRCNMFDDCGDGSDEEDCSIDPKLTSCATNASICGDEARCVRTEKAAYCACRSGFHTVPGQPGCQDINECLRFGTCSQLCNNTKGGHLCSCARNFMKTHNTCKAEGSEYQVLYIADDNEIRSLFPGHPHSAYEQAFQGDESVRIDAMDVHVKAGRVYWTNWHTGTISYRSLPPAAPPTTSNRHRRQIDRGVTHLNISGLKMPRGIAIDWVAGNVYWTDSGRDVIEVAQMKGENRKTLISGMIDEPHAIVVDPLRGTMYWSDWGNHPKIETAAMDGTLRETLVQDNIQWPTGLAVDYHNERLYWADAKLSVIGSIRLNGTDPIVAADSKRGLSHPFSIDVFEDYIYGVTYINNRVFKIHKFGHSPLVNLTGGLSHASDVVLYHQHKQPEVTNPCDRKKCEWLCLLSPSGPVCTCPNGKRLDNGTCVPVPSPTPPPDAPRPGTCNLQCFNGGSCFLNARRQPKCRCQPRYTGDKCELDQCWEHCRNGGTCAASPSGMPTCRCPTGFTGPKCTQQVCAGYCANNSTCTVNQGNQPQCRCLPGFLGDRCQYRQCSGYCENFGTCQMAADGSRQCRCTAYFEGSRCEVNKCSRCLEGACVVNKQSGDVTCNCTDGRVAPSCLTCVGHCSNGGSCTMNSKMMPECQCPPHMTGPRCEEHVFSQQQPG

B1: CYC31 (designed binder)
chain: GGVCNPLKLKYWREWTYGGGCRRDSDCPGACICRGNGYCGSGSD
B2: CYC30 (designed binder)
chain: GGVCWLTLGIANKGIDVYDVKCRRDSDCPGACICRGNGYCGSGSD
B3: CYC37 (designed binder)
chain: GGVCDQSPYKLKHYGWCRRDSDCPGACICRGNGYCGSGSD
B4: CYC34 (designed binder)
chain: GGVCWYETKTKLYVGVVKCRRDSDCPGACICRGNGYCGSGSD
B5: CYC36 (designed binder)
chain: GGVCWHHEWITWWFWHCRRDSDCPGACICRGNGYCGSGSD
B6: CYC32 (designed binder)
chain: GGVCYTQNRYKWLYAQTLNCRRDSDCPGACICRGNGYCGSGSD
B7: CYC38 (designed binder)
chain: GGVCPWYKMWFYETHRCRRDSDCPGACICRGNGYCGSGSD
B8: CYC35 (designed binder)
chain: GGVCLALTKPYWQWAMCRRDSDCPGACICRGNGYCGSGSD
B9: CYC33 (designed binder)
chain: GGVCIEDRKHHRNLHQTVQCRRDSDCPGACICRGNGYCGSGSD
B10: CYC39 (designed binder)
chain: GGVCTPWKSQPLFWFQCRRDSDCPGACICRGNGYCGSGSD

Biological target: human low-density lipoprotein receptor-related protein 1 (Hu LRP-1), recombinant extracellular domain (human) (UniProt Q07954)
Test: phage selection and phage ELISA on coated receptor ECD

binding, binds:
B1, B2, B3, B4, B5, B6, B7, B8, B9, B10
